# According to patent US20110190333A1, “DIHYDROTETRABENANZINE FOR THE TREATMENT OF ANXIETY” (Biovail Laboratories International (Barbados) S.R.L., priority 2008, published 2011):
# At least one compound was matched to its structure with a doubt left.
# What was measured:
# [1] = tested on: female hooded-Lister rats; test: Elevated plus maze, Study 2; assay type: in vivo, rat
# From the text: (§1) The elevated plus maze has been widely used as a test for anxiety, as it avoids confounding effects on consummatory responses or sensitivity to shock and it has a certain level of ethological relevance (see Rodgers R J, Cole J C (1994) The elevated plus maze. Pharmacological methods and ethology. In: Cooper, S J, Hendrie C A (eds) Ethology and Psychopharmacology. J. Wiley & Sons Ltd, pp 9-941994).
# (§2) The maze consists of opposite pairs of open and closed arms, and the proportion of exploration carried out on the open arms is taken to be a measure of anxiety. Thus the percentage of open arm entries is increased by known anxiolytic agents and reduced by anxiogenic compounds (Pellow, S, Chopin P, File S E, Briley, M (1985) Validation of open: closed arm entries in an elevated plus maze as a measure of anxiety in the rat. J. Neurosci. Meth. 14: 149-167). In addition, the plus maze may be used to examine the behavioural response to stress, as exposure induces the release of corticosterone File, S E, Pellow, S (1987) Behavioural pharmacology of minor tranquillisers. J. Pharmacol. Exp. Ther. 35: 265-290). The elevated plus maze is based on an approach conflict model and has been validated as a model of anxiety in the rat (Tomkins D M (1990) The behavioural effects of anxiogenic agents in rodents. PhD thesis. Postgraduate studies in Pharmacology. University of Bradford).
# (§3) Two studies were carried out using the elevated plus maze method and the aim of the studies was to assess the ability of a Isomer A for its ability to produce an anxiolytic effect in female hooded-Lister rats.
# (§4) A total of 60 female hooded-Lister rats were used as subjects for study B. Female hooded-Lister rats (Charles River, UK) were obtained as adults and weighed approximately 220-250 g at the start of the study. Subjects were housed in routinely used home cages in groups of 5 per cage. Home cages measured 59×35×24 cm. Rats were maintained under standard laboratory conditions on a 12:12 hour light/dark cycle (lights on at 08:00 h). Experimental procedures were performed in the light phase. Laboratory rooms were temperature controlled at 21±2° C. and humidity remained at 40-50% throughout the study. Rats were tested in the naïve state i.e. they had no exposure to the plus maze prior to testing, although they were handled and received sham injections prior to testing.
# Isomer A (0.1-2.5 mg/kg) and chlordiazepoxide (2.5 mg/kg) were tested. Isomer A was dissolved in water and administered via the oral route (p.o.) 30 minutes prior to testing. Chlordiazepoxide (CDP) was dissolved in saline and administered via the intraperitoneal route (i.p.) 30 min prior to testing.
# (§5) The maze consisted of a +shaped maze, made of Perspex, with two open arms (30×5 cm) and two closed arms (30×5 cm). The maze was arranged so that like arms are opposing. The closed arms were surrounded by matt black walls on all sides (10 cm in height). The maze was elevated to a height of 50 cm, and the surface was covered with a removable rubber matting. The behaviour of drug or vehicle-treated rats was monitored by means of a video camera attached to a TV monitor and video recorder. The rat was placed in the centre square and behaviour monitored over a 10 min test period. […] The maze was cleaned between tests and rats were placed on the maze in a randomised manner in order to minimise the effects of familiar cage mate odours.
# (§6) Behaviour was recorded and the following parameters were analysed from the video tapes using the Hindsight® program for ethological analysis of behaviour: time spent on, and entries into, the open and closed arms, time spent in the centre square and rearing on the open and closed arms.
# (§7) Elevated plus maze data were analysed by a one way ANOVA, followed by Dunnett's t test to assess drug effects on number of entries into the open and closed arms, length of time spent, and number of rears in, open and closed arms, and time spent in the centre square compared with vehicle.
# [2] = tested on: female hooded-Lister rats; test: Elevated plus maze, Study 1; assay type: in vivo, rat
# From the text: as §1, §2, §3
# as §4, with “90” for “60”, “1.” for “B.”, “(Harlan,” for “(Charles River,”, “200-220” for “220-250”
# Isomer A (1.0-30.0 mg/kg) and chlordiazepoxide (1.0-5.0 mg/kg) were tested. Isomer A was dissolved in water and administered via the oral route 30 minutes prior to testing. Chlordiazepoxide (CDP) was dissolved in saline and administered via the intraperitoneal route 30 min prior to testing.
# as §5, §6, §7
# [3] = CDP 2.5 mg/kg i.p. and Isomer A 0.1-2.5 mg/kg p.o., 10 min trial, overall ANOVA
# [4] = CDP 2.5 mg/kg i.p., post-hoc vs vehicle (p<0.01)
# [5] = CDP 2.5 mg/kg i.p., post-hoc vs vehicle (p<0.05)
smiles,measurement,setting,value
"CNC1=Nc2ccc(Cl)cc2C(c2ccccc2)=[N+]([O-])C1 [CDP, chlordiazepoxide, reference compound]",number of rears,[1]; [3],no overall significant effect
same,time spent in the centre square,[1]; [3],no overall significant effect
same,time spent on the closed arms,[1]; [3],overall significant effect
same,time spent on the open arms,[1]; [3],overall significant effect
same,total closed arm entries,[1]; [3],no overall significant effect
same,total open arm entries,[1]; [3],no overall significant effect
same,time spent on the open arms,[1]; [4],significantly increased
same,time spent on the closed arms,[1]; [5],significantly reduced
same,anxiolytic effect on the elevated plus maze,"[1]; chlordiazepoxide 2.5 mg/kg i.p., Study 2",clear and robust anxiolytic effect
same,reduction of time spent in the centre square,"[2]; CDP 1.0 mg/kg i.p., post-hoc (p=0.056)",very closely approached significance
same,reduction of time spent on the closed arms,"[2]; CDP 2.5 mg/kg i.p., post-hoc (p=0.08)",approached significance
same,total open arm entries,[2]; [4],significantly increased
same,increase in time spent on the open arms,[2]; [5],reached statistical significance
same,time spent on the open arms,"[2]; CDP 1.0-5.0 mg/kg i.p., 10 min trial, overall ANOVA",overall significant effect
same,time spent in the centre square,"[2]; CDP 1.0-5.0 mg/kg i.p., 10 minute trial, ANOVA",did not produce a significant effect
same,total open arm entries,"[2]; CDP 1.0-5.0 mg/kg i.p., 10 minute trial, overall ANOVA",significant effect
same,anxiolytic effect on the elevated plus maze,"[2]; chlordiazepoxide 2.5 mg/kg i.p., Study 1",clear and robust anxiolytic effect
